Test results reported in patent US20210130401A1 (THE REGENTS OF THE UNIVERSITY OF MICHIGAN, priority 2017, published 2021).

Test: general procedure: hybrid (solid and solution phase) peptide synthesis; 2-chlorotrityl chloride resin (ChemPep, 1 mmol/g); EDCl, HOAt, DIPEA (solution couplings)
Settings: for final purity (method not given): Waters ACQUITY UPLC, reverse-phase SunFire C18 5 um 4.6x150 mm, 0.1% TFA water/CH3CN
[1] = late stage modification step, TFA salt
[2] = whole synthesis, scale of the general procedure 0.1 mmol, TFA salt
[3] = whole synthesis, over 4 steps, scale of the general procedure 0.1 mmol, TFA salt
[4] = whole synthesis, over 3 steps, scale of the general procedure 0.1 mmol, TFA salt

| Substance | step yield [1] | final purity (method not given) [1] | also measured |
| --- | --- | --- | --- |
| N-((3R,6S,9S,12R)-6-ethyl-12-methyl-9-(3-((1-methylpiperidin-4-yl)amino)propyl)-2,5,8,11-tetraoxo-3-phenyl-1,4,7,10-tetraazacyclotetradecan-12-yl)isobutyramide | 50% yield | >98% purity |  |
| N-((3R,6S,9S,12R)-6-ethyl-12-methyl-9-(((1-methylpiperidin-4-yl)amino)methyl)-2,5,8,11-tetraoxo-3-phenyl-1,4,7,10-tetraazacyclotetradecan-12-yl)isobutyramide | 65% yield | >98% purity |  |
| N-((3R,6S,9S,12R)-9-(2-((1H-imidazol-2-yl)amino)ethyl)-6-ethyl-12-methyl-2,5,8,11-tetraoxo-3-phenyl-1,4,7,10-tetraazacyclotetradecan-12-yl)isobutyramide | 10% yield | >98% purity |  |
| N-((3R,6S,9S,12R)-9-(2-((4,5-dihydro-1H-imidazol-2-yl)amino)ethyl)-6-ethyl-12-methyl-2,5,8,11-tetraoxo-3-phenyl-1,4,7,10-tetraazacyclotetradecan-12-yl)isobutyramide | 47% yield | >98% purity |  |
| N-((3R,6S,9S,12R)-9-(3-(3-acetylguanidino)propyl)-3-(cyclohexylmethyl)-6-ethyl-12-methyl-2,5,8,11-tetraoxo-1,4,7,10-tetraazacyclotetradecan-12-yl)isobutyramide | 36% | >98% |  |
| N-((3R,6S,9S,12R)-9-(3-(3-acetylguanidino)propyl)-6-ethyl-12-methyl-2,5,8,11-tetraoxo-3-phenyl-1,4,7,10-tetraazacyclotetradecan-12-yl)isobutyramide | 61% | >98% |  |
| N-((3R,6S,9S,12R)-9-(3-(3-butylguanidino)propyl)-3-(cyclohexylmethyl)-6-ethyl-12-methyl-2,5,8,11-tetraoxo-1,4,7,10-tetraazacyclotetradecan-12-yl)isobutyramide | 66% | >98% |  |
| N-((3R,6S,9S,12R)-9-(3-(3-carbamimidoylguanidino)propyl)-3-(cyclohexylmethyl)-6-ethyl-12-methyl-2,5,8,11-tetraoxo-1,4,7,10-tetraazacyclotetradecan-12-yl)isobutyramide | 38% | >98% |  |
| N-((3R,6S,9S,12R)-9-(3-(3-cyanoguanidino)propyl)-3-(cyclohexylmethyl)-6-ethyl-12-methyl-2,5,8,11-tetraoxo-1,4,7,10-tetraazacyclotetradecan-12-yl)isobutyramide | 53% | >98% |  |
| N-((3R,6S,9S,12R)-9-(3-((1H-imidazol-2-yl)amino)propyl)-6-ethyl-12-methyl-2,5,8,11-tetraoxo-3-phenyl-1,4,7,10-tetraazacyclotetradecan-12-yl)isobutyramide | 24% yield | >98% purity |  |
| N-((3R,6S,9S,12R)-9-(3-((4,5-dihydro-1H-imidazol-2-yl)amino)propyl)-6-ethyl-12-methyl-2,5,8,11-tetraoxo-3-phenyl-1,4,7,10-tetraazacyclotetradecan-12-yl)isobutyramide | 53% yield | >98% purity |  |
| N-((3R,6S,9S,12R)-9-(3-((E)-2,3-dimethylguanidino)propyl)-6-ethyl-12-methyl-2,5,8,11-tetraoxo-3-phenyl-1,4,7,10-tetraazacyclohexadecan-12-yl)isobutyramide |  |  | cyclisation yield (cyclisation step, over 3 steps from 36i, TFA salt): 27% yield over 3 steps |
| N-((3R,6S,9S,12R)-9-(3-((amino(methylamino)methyl)amino)propyl)-3-(cyclohexylmethyl)-6-ethyl-12-methyl-2,5,8,11-tetraoxo-1,4,7,10-tetraazacyclotetradecan-12-yl)isobutyramide | 62% | >98% |  |
| N-((3R,6S,9S,12R)-9-(3-guanidinopropyl)-6-isopropyl-12-methyl-2,5,8,11-tetraoxo-3-phenyl-1,4,7,10-tetraazacyclotetradecan-12-yl)isobutyramide |  |  | isolated mass (whole synthesis, TFA salt): 11.7 mg; final purity (method not given) [2]: >98%; isolated yield [3]: 20% |
| N-((3R,6S,9S,12R)-9-(3-guanidinopropyl)-12-methyl-2,5,8,11-tetraoxo-3-phenyl-6-propyl-1,4,7,10-tetraazacyclotetradecan-12-yl)isobutyramide |  |  | isolated mass (whole synthesis, TFA salt): 19.6 mg; final purity (method not given) [2]: >98%; isolated yield [3]: 34% |
| N-((3R,6S,9S,12R)-9-(4-(dimethylamino)butyl)-6-ethyl-12-methyl-2,5,8,11-tetraoxo-3-phenyl-1,4,7,10-tetraazacyclotetradecan-12-yl)isobutyramide | 32% yield | >98% purity |  |
| N-((3R,6S,12R)-6-ethyl-12-methyl-2,5,8,11-tetraoxo-3-phenyl-9-(2-(pyridin-2-ylamino)ethyl)-1,4,7,10-tetraazacyclotetradecan-12-yl)isobutyramide | 54% yield | >98% purity |  |
| N-((3R,6S,12R)-6-ethyl-12-methyl-2,5,8,11-tetraoxo-3-phenyl-9-(3-(pyrimidin-2-ylamino)propyl)-1,4,7,10-tetraazacyclotetradecan-12-yl)isobutyramide | 69% | >98% |  |
| N-((3R,6S,12R)-6-ethyl-12-methyl-2,5,8,11-tetraoxo-3-phenyl-9-(3-phenylpropyl)-1,4,7,10-tetraazacyclotetradecan-12-yl)isobutyramide |  |  | isolated mass (whole synthesis, TFA salt): 3.9 mg; final purity (method not given) [2]: >98% purity; isolated yield [4]: 7% yield over 3 steps |
| N-((3R,6S,12R)-6-ethyl-12-methyl-2,5,8,11-tetraoxo-9-phenethyl-3-phenyl-1,4,7,10-tetraazacyclotetradecan-12-yl)isobutyramide |  |  | isolated mass (whole synthesis, TFA salt): 3.9 mg; final purity (method not given) [2]: >98% purity; isolated yield [4]: 7% yield over 3 steps |
| N-((3R,6S,12R)-9-(3-(2-chloroacetamido)propyl)-6-ethyl-12-methyl-2,5,8,11-tetraoxo-3-phenyl-1,4,7,10-tetraazacyclotetradecan-12-yl)isobutyramide | 78% | >98% |  |
| N-((3R,6S,12R)-9-(3-amino-3-oxopropyl)-6-ethyl-12-methyl-2,5,8,11-tetraoxo-3-phenyl-1,4,7,10-tetraazacyclotetradecan-12-yl)isobutyramide |  |  | isolated mass (whole synthesis, TFA salt): 8.8 mg; final purity (method not given) [2]: >98% purity; isolated yield [4]: 17% yield over 3 steps |
| N-((3S,6S,9S,12R)-6-ethyl-12-methyl-9-(3-(3-methylguanidino)propyl)-2,5,8,11-tetraoxo-3-phenyl-1,4,7,10-tetraazacyclotetradecan-12-yl)isobutyramide |  |  | isolated yield [3]: 7% yield over 4 steps |
| N-((6S,9S,12R)-3-(3-chlorophenyl)-6-ethyl-9-(3-guanidinopropyl)-12-methyl-2,5,8,11-tetraoxo-1,4,7,10-tetraazacyclotetradecan-12-yl)isobutyramide |  |  | isolated yield (whole synthesis, over 4 steps, scale of the general procedure 0.1 mmol, CF3COOH salt): 15% |
| N-((8S,11R,16R)-8-(3-guanidinopropyl)-11-methyl-7,10,15,18-tetraoxo-16-phenyl-6,9,14,17-tetraazaspiro[4.13]octadecan-11-yl)isobutyramide |  |  | isolated mass (whole synthesis, TFA salt): 4.2 mg; final purity (method not given) [2]: >98%; isolated yield [3]: 7% |
